# Assay results published in PMC12520468.
# Target: RPL6 (purified) (UniProt Q02878)
# Experiment: EMSA
# Conditions: REMSA: LightShift Chemiluminescent RNA EMSA kit, 8% polyacrylamide, pH and temperature not stated; recombinant protein; label: biotin; probe letters rebuilt from the primers and the genome; part of a longer molecule
sequence,measurement,value
GCGGACUGUCCUUUCGUGGCUCACUCCCUUUCCUCUGCUGCCGCUCGGUCACGCUUGUGCCCGAAGGAGGAAACAGUGACAGACCUGGAGACUGCAGUUCUCUAUCCUUCACACAGCUCUUUCACC [HMGCS1 5'UTR],binding result,no binding

# Construct, isoform or probe ends are uncertain for at least one entry. No signal at the amounts used counts as a negative.
